Data source: PubChem BioAssay AID1224830 (NIAID, 2016)

Purpose: 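Genes whose knock-down alters the TNF-alpha reporter response to LPS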 (primary screen)
Cells: human THP-1 monocytic leukaemia cells, TNF dual-luciferase reporter clone, PMA-differentiated to macrophage-like cells
Knock-down reagent: siRNA pool against human genes, 50 nM
Time to read-out: LPS for 4 h, given about 3 days after siRNA transfection
Treatment: bacterial LPS (TLR4 ligand), 10 ng/ml
Detection: 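Ratio of firefly to renilla light, scaled to the plate median and expressed as a robust z-score per replicate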
Direction: TNF reporter robust z-score: higher = stronger TNF reporter response to LPS
Hit rule: 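a well is active when its z-score exceeds 2.8 or falls below -1.5; control wells carry no call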
The deposit covers about 18,000 reagents; this is a random part of them. About 2,900 of all reagents (16%) count as active. 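Calls are made per well; low scores hint the gene aids the LPS response, high scores that it dampens it.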 Repeated entries: four replicate wells of each siRNA pool. Reagent sequences are not shown.

| Gene | TNF reporter robust z-score | outcome |
| --- | --- | --- |
| TSPO2 (translocator protein 2) | -0.29 | inactive |
| TSPO2 (translocator protein 2) | 0.67 | inactive |
| TSPO2 (translocator protein 2) | 1.19 | inactive |
| TSPO2 (translocator protein 2) | 0.37 | inactive |
| CD19 (CD19 molecule) | 0.11 | inactive |
| CD19 (CD19 molecule) | -0.66 | inactive |
| CD19 (CD19 molecule) | -0.01 | inactive |
| CD19 (CD19 molecule) | 0.62 | inactive |
| JTB (jumping translocation breakpoint) | -1.35 | inactive |
| JTB (jumping translocation breakpoint) | -1.21 | inactive |
| JTB (jumping translocation breakpoint) | -0.77 | inactive |
| JTB (jumping translocation breakpoint) | -0.96 | inactive |
| NEDD8 (NEDD8 ubiquitin like modifier) | 0.51 | inactive |
| NEDD8 (NEDD8 ubiquitin like modifier) | 0.35 | inactive |
| NEDD8 (NEDD8 ubiquitin like modifier) | -1.18 | inactive |
| NEDD8 (NEDD8 ubiquitin like modifier) | -0.46 | inactive |
| PWP1 (PWP1 homolog, endonuclein) | 0.06 | inactive |
| PWP1 (PWP1 homolog, endonuclein) | 0.3 | inactive |
| PWP1 (PWP1 homolog, endonuclein) | 0.13 | inactive |
| PWP1 (PWP1 homolog, endonuclein) | 0.03 | inactive |
| RPS25 (ribosomal protein S25) | 0.4 | inactive |
| RPS25 (ribosomal protein S25) | 0.18 | inactive |
| RPS25 (ribosomal protein S25) | 0.12 | inactive |
| RPS25 (ribosomal protein S25) | 0.01 | inactive |
| SCNM1 (sodium channel modifier 1) | -1.42 | inactive |
| SCNM1 (sodium channel modifier 1) | -1.21 | inactive |
| SCNM1 (sodium channel modifier 1) | -1.38 | inactive |
| SCNM1 (sodium channel modifier 1) | -1.66 | active |
| NCEH1 (neutral cholesterol ester hydrolase 1) | 1.84 | inactive |
| NCEH1 (neutral cholesterol ester hydrolase 1) | 2.66 | inactive |
| NCEH1 (neutral cholesterol ester hydrolase 1) | 1.54 | inactive |
| NCEH1 (neutral cholesterol ester hydrolase 1) | 2.05 | inactive |
| H4C7 (H4 clustered histone 7) | -0.27 | inactive |
| H4C7 (H4 clustered histone 7) | -0.23 | inactive |
| H4C7 (H4 clustered histone 7) | 0.04 | inactive |
| RASGRP2 (RAS guanyl releasing protein 2) | 1.03 | inactive |
| RASGRP2 (RAS guanyl releasing protein 2) | 1.34 | inactive |
| RASGRP2 (RAS guanyl releasing protein 2) | 1.71 | inactive |
| RASGRP2 (RAS guanyl releasing protein 2) | 2.95 | active |
| NOL3 (nucleolar protein 3) | -1.45 | inactive |
| NOL3 (nucleolar protein 3) | -0.56 | inactive |
| NOL3 (nucleolar protein 3) | -1.89 | active |
| NOL3 (nucleolar protein 3) | -1.23 | inactive |
| OR2A4 (olfactory receptor family 2 subfamily A member 4) | 0.14 | inactive |
| OR2A4 (olfactory receptor family 2 subfamily A member 4) | 0.81 | inactive |
| OR2A4 (olfactory receptor family 2 subfamily A member 4) | 0.79 | inactive |
| OR2A4 (olfactory receptor family 2 subfamily A member 4) | -0.2 | inactive |
